Laboratory results reported in PubChem BioAssay AID493014 (National Center for Advancing Translational Sciences (NCATS), 2011).
This is one part of the list. Shown are side measurements of this screen, not its main read-out; they come without a call. Most of these compounds were active or inconclusive in the main read-out, so they are no random draw. Potencies come from curve fits of mixed quality, noted in brackets.

Assay: qHTS Assay to Find Inhibitors of Chronic Active B-Cell Receptor Signaling
Details: ABC-DLBCL IkBa-CBG/CBR reporter, luminescence ratio (green luciferase fused to IkBa over red control in TMD8 lymphoma cells), 4 h
How it was run: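 Doxycycline induced both beetle luciferases in TMD8 lymphoma cells; IKK-driven degradation limits the IkappaBalpha-fused green signal, while red luminescence normalises for cell number and nonspecific effects. Compounds tested up to 46 uM, 4 hrs.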

[1] = measured here: CBR red luminescence, cell number

Structure (SMILES)	AC50 [1]	AC50 (measured here: IkBa-CBG green luminescence)
Cc1ccc(-n2nc(C(=O)O)cc2-c2ccccc2Cl)cc1	10 µM [rising, partial curve, poor fit]	
O=C(CSc1nc2ccccc2[nH]1)Nc1nc(-c2cccc(Br)c2)cs1	5.17 µM [rising, full curve, poor fit]	
Cc1cc(NC(=O)c2ccc(F)cc2)n(-c2ccccc2)n1	15.8 µM [rising, single point]	
O=C(Nc1cccc(S(=O)(=O)NC2=NCCC2)c1)c1ccc(=O)[nH]c1	6.51 µM [rising, single point]	
O=C(NCC(c1cccs1)N1CCOCC1)c1ccccc1NS(=O)(=O)c1ccc(Cl)c([N+](=O)[O-])c1 (stereo not drawn)	8.2 µM [falling, partial curve, poor fit]	
CC1=C(C(=O)OC2CCCCCCC2)C(c2cccc(O)c2)NC(=O)N1 (stereo not drawn)	0.461 µM [falling, full curve, poor fit]	
CSc1nnc(-c2cc3c(-c4ccccc4)nn(C)c3s2)n1C	3.55 µM [falling, full curve, poor fit]	
Nc1cc(Oc2ccc(Cl)cc2Cl)nc(N)n1	15.8 µM [rising, partial curve, poor fit]	
COC(c1ccccc1)c1nnc(CCC(=O)N2CCCCCCC2)o1 (stereo not drawn)		12.6 µM [rising, partial curve, poor fit]
N#C/C(=C\c1ccc2c(c1)OCCO2)C(=O)Nc1ccc(C(=O)O)cc1	2.82 µM [falling, full curve]	
CC(=O)c1sc(NC(=O)c2ccccc2C)nc1C	1.26 µM [falling, full curve]	
Cc1cc(N/C=C/C(=O)c2ccccc2)ccc1Br	2.82 µM [falling, partial curve, poor fit]	
CC(C)[C@H](NC(=O)[C@@H]1Cc2c([nH]c3ccccc23)C2c3ccccc3C(=O)N21)C(=O)NCC1CCCO1 (stereo partly drawn)	11.2 µM [falling, single point]	
C=CCN1N=C(/C=C/c2ccc(C)cc2)CCC1=O	11.2 µM [rising, partial curve]	
CCOC(=O)Cc1c(C)nc2cc(-c3ccc(C(C)(C)C)cc3)[nH]n2c1=O	0.0731 µM [rising, full curve, poor fit]	
Brc1ccc(-c2nnc(-c3ccccc3)o2)o1	16.4 µM [falling, single point]	
Nc1nn(-c2cccc(F)n2)cc1-c1ccccc1	11.2 µM [falling, partial curve]	
CC(OC(=O)c1ccc(CN2CCCC2=O)cc1)C(=O)Nc1ccc(Cl)cc1 (stereo not drawn)	29.1 µM [rising, single point]	

Another view of two compounds above:
Structure (SMILES) | AC50 [1] | AC50 (measured here: IkBa-CBG green luminescence)
O=C(NCC(c1cccs1)N1CCOCC1)c1ccccc1NS(=O)(=O)c1ccc(Cl)c([N+](=O)[O-])c1 (stereo not drawn) | 8.2 µM [falling, partial curve, poor fit] | 
CC(OC(=O)c1ccc(CN2CCCC2=O)cc1)C(=O)Nc1ccc(Cl)cc1 (stereo not drawn) | 29.1 µM [rising, single point] | 
